Taken from: PubChem BioAssay AID602196 (INSERM, 2012)
Test: 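Knock-downs that protect lung cancer cells from cisplatin or sensitise them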. Cells: human A549 lung cancer cells. Reagent: siRNA pair against human genes. Duration: 48 h transfection before cisplatin; time from cisplatin to read-out not stated. Challenge: cisplatin at a dose killing half of control-siRNA cells; exact dose and duration not given. Measurement: 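Cisplatin cell death as a shift from the 50% death seen with control siRNA; siRNAs toxic or growth-blocking alone scored 0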. Scale: two-siRNA summed score (-2 to +2): higher = both siRNAs protect from cisplatin killing; -2 means both sensitise. Rule for the call: 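siRNAs harmful alone (LDH or WST-1) get 0; others get +1 for less and -1 for more cisplatin killing; genes are active when the two siRNAs give the same sign, summing to ±2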. Calls: active = both siRNAs shift cisplatin killing the same way; inactive = no consistent shift, or siRNA harmful alone.
The whole screen tested about 23,000 reagents; shown is a random part of them. 455 of them (2%) count as active. 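Active includes both protection and sensitisation; some change values fall well beyond the stated -50 to +50 range.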 Further read-outs or replicates are left out here. Not given: the amount of reagent.

| gene | PubChem SID | two-siRNA summed score (-2 to +2) | activity call |
| --- | --- | --- | --- |
| OR52P2P (olfactory receptor family 52 subfamily P member 2 pseudogene) | SID131502976 | 0 | inactive |
| TAS2R1 (taste 2 receptor member 1) | SID131509023 | 0 | inactive |
| LRRC4B (leucine rich repeat containing 4B) | SID131521313 | 1 | inactive |
| SHISA7 (shisa family member 7) | SID131507451 | 0 | inactive |
| ST6GAL2 (ST6 beta-galactoside alpha-2,6-sialyltransferase 2) | SID131512026 | 0 | inactive |
| GORASP2 (golgi reassembly stacking protein 2) | SID131502855 | 0 | inactive |
| DMAC2 (distal membrane arm assembly component 2) | SID131505582 | 0 | inactive |
| PBXIP1 (PBX homeobox interacting protein 1) | SID131522967 | 2 | active |
| PLK2 (polo like kinase 2) | SID131508895 | 0 | inactive |
| ZNF552 (zinc finger protein 552) | SID131507389 | 0 | inactive |
| FBXL19-AS1 (FBXL19 antisense RNA 1) | SID131501544 | -1 | inactive |
| JAKMIP2 (janus kinase and microtubule interacting protein 2) | SID131521690 | 1 | inactive |
| PSORS1C1 (psoriasis susceptibility 1 candidate 1) | SID131509961 | 0 | inactive |
| MED27 (mediator complex subunit 27) | SID131502737 | -1 | inactive |
| FIBP (FGF1 intracellular binding protein) | SID131516154 | 0 | inactive |
| PRG3 (proteoglycan 3, pro eosinophil major basic protein 2) | SID131518615 | 0 | inactive |
| TDRD5 (tudor domain containing 5) | SID131517165 | 0 | inactive |
| MAP3K19 (mitogen-activated protein kinase kinase kinase 19) | SID131511632 | 0 | inactive |
| DEFB123 (defensin beta 123) | SID131518985 | 1 | inactive |
| CPA6 (carboxypeptidase A6) | SID131513679 | 0 | inactive |
| FCRL1 (Fc receptor like 1) | SID131513727 | 0 | inactive |
| NUDT5 (nudix hydrolase 5) | SID131505657 | 0 | inactive |
| VN1R3 (vomeronasal 1 receptor 3) | SID131509220 | 0 | inactive |
| ALG13 (ALG13 UDP-N-acetylglucosaminyltransferase subunit) | SID131512350 | 0 | inactive |
| ALG13 (ALG13 UDP-N-acetylglucosaminyltransferase subunit) | SID131512352 | 0 | inactive |
| TTC33 (tetratricopeptide repeat domain 33) | SID131515629 | 0 | inactive |

Called active, among the entries above:
| gene | PubChem SID | two-siRNA summed score (-2 to +2) | activity call |
| --- | --- | --- | --- |
| PBXIP1 (PBX homeobox interacting protein 1) | SID131522967 | 2 | active |

Further results:
| gene | PubChem SID | two-siRNA summed score (-2 to +2) | activity call |
| --- | --- | --- | --- |
| OR4Q3 (olfactory receptor family 4 subfamily Q member 3) | SID131521114 | 1 | inactive |
| EEF2KMT (eukaryotic elongation factor 2 lysine methyltransferase) | SID131521176 | 1 | inactive |
| PART1 (prostate androgen-regulated transcript 1) | SID131510010 | 0 | inactive |
| RELL2 (RELT like 2) | SID131503981 | 0 | inactive |
| RHD (Rh blood group D antigen) | SID131509327 | 0 | inactive |
| LOC440058 | SID131522486 | 1 | inactive |
| UBA5 (ubiquitin like modifier activating enzyme 5) | SID131508613 | 0 | inactive |
| LOC442120 | SID131504886 | 0 | inactive |
| STX4 (syntaxin 4) | SID131520137 | 1 | inactive |
| UPF2 (UPF2 regulator of nonsense mediated mRNA decay) | SID131513113 | 0 | inactive |
| LOC392434 | SID131513730 | 0 | inactive |
| DNAJC9 (DnaJ heat shock protein family (Hsp40) member C9) | SID131520538 | 1 | inactive |
| MAP2K2 (mitogen-activated protein kinase kinase 2) | SID131507333 | 0 | inactive |
